According to the supplement of paper PMC10849652:
This is one part of the list.

Chains of the proteins cited; added tags and fusions are not shown. Lines headed by an entry give the natural chain unless they say otherwise; changes in a name come on top.
UniProt Q9H061: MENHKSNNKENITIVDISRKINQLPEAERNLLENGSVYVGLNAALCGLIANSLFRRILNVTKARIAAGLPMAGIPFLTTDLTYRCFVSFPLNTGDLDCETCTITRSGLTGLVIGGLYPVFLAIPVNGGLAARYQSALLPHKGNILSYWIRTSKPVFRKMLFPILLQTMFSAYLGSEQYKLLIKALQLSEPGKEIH
UniProt Q9Y3A6: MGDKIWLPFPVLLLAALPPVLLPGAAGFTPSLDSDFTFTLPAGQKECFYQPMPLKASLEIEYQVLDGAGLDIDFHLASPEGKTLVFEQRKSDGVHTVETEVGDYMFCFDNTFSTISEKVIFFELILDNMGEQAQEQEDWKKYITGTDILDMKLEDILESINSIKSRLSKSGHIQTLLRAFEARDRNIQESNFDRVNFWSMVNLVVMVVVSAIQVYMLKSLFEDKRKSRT
UniProt Q9Y2S6, whole entry, looked up: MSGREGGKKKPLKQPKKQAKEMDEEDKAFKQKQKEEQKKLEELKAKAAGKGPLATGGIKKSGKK
UniProt P49755: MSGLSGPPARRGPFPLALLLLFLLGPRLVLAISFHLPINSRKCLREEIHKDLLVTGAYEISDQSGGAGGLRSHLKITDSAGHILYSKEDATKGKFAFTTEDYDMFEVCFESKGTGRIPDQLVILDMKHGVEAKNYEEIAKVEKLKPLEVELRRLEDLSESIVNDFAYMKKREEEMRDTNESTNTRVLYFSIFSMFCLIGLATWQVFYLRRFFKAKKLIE
UniProt O75663: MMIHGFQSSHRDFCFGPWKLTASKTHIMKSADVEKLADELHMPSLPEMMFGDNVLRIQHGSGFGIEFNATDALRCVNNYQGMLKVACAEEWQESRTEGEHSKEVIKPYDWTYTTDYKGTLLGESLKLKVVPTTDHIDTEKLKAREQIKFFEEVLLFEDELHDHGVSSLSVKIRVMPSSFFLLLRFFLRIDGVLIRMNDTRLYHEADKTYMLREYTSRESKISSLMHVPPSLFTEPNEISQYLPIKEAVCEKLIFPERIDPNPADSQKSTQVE
UniProt Q99595: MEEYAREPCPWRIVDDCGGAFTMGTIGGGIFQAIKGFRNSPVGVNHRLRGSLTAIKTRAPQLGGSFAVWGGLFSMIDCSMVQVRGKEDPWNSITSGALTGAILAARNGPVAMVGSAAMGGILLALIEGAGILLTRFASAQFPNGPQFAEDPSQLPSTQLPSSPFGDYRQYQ
UniProt O60830: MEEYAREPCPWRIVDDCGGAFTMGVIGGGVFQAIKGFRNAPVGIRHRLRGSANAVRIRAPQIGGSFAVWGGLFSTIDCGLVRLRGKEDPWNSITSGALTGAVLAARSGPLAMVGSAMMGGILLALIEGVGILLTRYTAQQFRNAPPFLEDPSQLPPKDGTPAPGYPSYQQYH
UniProt Q6PL24: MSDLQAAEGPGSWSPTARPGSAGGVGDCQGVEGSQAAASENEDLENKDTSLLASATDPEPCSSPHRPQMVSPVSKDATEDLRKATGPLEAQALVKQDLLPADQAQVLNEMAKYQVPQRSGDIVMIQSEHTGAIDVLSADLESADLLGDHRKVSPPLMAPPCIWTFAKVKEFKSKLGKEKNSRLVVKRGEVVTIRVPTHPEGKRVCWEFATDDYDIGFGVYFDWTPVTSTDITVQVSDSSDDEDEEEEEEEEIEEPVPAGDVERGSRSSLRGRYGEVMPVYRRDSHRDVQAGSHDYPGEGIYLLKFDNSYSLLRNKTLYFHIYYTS
UniProt Q01085: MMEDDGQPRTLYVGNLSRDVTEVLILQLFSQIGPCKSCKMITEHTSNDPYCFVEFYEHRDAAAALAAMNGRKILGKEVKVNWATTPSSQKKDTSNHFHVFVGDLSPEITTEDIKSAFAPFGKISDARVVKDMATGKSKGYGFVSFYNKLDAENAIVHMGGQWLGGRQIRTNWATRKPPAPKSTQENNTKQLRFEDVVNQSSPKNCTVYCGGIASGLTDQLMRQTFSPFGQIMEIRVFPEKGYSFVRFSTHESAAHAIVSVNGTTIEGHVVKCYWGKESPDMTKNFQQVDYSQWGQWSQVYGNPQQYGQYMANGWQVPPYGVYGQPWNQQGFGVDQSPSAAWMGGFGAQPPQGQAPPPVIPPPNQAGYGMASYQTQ
UniProt Q86XR7, whole entry, looked up: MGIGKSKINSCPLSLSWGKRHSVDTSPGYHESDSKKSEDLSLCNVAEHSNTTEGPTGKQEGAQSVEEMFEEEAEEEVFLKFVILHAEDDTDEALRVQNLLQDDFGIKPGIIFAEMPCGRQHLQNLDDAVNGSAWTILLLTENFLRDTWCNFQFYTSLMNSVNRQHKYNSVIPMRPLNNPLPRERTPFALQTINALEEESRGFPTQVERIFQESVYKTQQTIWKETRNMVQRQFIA
UniProt Q9BTF0: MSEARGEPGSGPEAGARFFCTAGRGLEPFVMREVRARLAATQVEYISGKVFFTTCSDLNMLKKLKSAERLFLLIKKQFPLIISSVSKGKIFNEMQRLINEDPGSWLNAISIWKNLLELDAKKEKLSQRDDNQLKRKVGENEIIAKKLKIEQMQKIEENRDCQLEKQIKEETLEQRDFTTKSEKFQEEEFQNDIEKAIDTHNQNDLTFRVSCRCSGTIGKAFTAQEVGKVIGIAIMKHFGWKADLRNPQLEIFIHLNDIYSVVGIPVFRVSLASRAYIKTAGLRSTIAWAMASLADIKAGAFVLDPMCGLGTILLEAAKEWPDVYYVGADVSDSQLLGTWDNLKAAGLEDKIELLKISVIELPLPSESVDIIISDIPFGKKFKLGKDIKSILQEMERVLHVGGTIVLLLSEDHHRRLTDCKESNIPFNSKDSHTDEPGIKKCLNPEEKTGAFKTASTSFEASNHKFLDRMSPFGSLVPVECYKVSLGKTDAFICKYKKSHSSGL
UniProt O43493: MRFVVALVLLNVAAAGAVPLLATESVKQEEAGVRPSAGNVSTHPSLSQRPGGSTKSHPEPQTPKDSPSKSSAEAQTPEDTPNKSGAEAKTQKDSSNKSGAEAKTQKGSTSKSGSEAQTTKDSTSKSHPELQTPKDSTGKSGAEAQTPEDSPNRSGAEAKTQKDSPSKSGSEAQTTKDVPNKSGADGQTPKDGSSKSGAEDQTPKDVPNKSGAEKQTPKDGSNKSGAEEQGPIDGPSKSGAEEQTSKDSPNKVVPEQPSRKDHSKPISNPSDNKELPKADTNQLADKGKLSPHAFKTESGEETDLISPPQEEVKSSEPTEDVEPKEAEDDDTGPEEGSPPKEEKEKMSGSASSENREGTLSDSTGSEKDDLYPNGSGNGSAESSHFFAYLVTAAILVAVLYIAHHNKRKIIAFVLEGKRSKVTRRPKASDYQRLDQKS
UniProt Q969X1: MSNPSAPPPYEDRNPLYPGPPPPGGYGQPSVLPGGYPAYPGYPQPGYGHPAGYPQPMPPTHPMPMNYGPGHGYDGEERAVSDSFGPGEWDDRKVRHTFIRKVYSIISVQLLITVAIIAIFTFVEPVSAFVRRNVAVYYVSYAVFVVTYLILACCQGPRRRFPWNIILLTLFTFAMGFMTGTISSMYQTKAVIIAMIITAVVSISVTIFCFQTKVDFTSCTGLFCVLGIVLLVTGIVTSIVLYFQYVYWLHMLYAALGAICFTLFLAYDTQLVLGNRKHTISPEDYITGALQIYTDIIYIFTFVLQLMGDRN
UniProt Q9NPL8: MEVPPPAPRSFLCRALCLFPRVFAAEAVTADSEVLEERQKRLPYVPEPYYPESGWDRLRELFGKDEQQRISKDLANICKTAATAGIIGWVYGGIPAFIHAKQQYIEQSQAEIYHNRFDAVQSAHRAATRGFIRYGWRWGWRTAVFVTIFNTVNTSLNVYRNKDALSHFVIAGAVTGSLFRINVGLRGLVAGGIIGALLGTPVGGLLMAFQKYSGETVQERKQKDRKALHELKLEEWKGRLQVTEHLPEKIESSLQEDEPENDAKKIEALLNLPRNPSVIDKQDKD
UniProt O14925: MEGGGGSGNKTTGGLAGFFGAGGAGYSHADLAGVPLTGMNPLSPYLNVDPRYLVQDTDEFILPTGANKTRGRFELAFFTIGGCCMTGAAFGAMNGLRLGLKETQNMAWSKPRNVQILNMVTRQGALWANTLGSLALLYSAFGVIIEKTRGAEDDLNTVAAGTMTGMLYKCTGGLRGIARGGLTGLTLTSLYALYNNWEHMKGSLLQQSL
UniProt Q9H7F4: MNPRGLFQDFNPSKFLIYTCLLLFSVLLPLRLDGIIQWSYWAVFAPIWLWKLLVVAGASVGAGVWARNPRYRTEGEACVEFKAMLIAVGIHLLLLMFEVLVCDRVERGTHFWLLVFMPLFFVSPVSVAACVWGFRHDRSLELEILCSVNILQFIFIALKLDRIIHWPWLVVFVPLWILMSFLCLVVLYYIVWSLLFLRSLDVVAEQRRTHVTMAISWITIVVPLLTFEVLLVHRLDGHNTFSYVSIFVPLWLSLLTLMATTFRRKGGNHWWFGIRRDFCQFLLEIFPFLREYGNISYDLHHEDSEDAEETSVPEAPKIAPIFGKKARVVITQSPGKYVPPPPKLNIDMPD
UniProt Q9H0V1: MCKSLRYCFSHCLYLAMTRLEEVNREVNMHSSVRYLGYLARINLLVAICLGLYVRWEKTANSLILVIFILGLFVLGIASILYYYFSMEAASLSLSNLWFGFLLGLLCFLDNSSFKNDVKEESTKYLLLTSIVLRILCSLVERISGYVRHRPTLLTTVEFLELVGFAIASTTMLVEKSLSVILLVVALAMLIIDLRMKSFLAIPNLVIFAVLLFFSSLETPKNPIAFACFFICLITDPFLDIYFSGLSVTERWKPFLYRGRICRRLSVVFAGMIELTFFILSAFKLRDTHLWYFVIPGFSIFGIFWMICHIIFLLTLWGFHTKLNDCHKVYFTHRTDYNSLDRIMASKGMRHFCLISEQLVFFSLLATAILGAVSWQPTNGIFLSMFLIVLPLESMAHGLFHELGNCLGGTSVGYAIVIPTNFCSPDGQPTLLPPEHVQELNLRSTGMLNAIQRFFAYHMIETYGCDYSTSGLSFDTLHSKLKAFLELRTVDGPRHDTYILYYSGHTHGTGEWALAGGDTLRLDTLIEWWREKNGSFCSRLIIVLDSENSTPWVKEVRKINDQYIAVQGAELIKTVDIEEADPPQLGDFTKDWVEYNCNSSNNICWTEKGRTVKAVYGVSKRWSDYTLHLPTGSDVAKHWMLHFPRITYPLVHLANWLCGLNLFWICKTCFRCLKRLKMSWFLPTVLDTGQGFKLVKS
UniProt Q13769: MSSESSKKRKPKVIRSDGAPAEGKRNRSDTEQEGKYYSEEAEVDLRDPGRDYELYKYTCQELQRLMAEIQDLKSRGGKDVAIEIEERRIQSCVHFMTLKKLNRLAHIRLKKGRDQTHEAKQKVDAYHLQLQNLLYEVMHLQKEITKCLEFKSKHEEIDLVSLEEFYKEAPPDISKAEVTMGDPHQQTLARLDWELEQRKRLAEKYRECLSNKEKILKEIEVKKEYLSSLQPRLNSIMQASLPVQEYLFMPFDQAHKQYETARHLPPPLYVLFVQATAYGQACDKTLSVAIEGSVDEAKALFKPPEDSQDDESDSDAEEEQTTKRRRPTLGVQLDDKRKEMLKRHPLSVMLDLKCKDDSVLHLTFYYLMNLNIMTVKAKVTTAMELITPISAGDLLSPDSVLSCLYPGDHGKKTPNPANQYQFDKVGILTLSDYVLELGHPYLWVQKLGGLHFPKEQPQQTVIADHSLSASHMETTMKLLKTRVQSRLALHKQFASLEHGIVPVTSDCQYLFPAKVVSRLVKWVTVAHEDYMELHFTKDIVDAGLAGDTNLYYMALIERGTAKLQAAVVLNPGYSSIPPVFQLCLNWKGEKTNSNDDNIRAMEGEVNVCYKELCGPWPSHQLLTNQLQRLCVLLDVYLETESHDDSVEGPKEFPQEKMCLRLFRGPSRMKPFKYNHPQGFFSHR
UniProt Q04727: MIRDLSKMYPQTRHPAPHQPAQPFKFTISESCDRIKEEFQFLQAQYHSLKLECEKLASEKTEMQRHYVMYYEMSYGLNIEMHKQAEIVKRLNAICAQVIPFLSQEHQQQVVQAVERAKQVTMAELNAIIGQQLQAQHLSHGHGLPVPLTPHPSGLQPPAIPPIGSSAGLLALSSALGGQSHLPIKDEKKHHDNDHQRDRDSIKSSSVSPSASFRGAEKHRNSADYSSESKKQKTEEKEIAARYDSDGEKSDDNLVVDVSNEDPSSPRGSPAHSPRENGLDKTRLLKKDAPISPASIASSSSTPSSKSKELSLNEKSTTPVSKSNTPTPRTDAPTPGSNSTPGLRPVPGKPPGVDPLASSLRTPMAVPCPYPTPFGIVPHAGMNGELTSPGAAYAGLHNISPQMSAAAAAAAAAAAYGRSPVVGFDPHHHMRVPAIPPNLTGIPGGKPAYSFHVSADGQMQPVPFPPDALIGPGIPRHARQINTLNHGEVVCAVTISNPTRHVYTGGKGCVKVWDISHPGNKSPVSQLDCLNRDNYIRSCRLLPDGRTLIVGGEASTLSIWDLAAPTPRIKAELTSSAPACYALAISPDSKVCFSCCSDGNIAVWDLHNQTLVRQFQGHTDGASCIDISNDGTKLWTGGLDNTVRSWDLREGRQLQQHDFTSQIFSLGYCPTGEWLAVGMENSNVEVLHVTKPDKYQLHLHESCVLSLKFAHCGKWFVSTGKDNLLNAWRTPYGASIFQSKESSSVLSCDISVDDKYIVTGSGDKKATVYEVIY

compound: CNc1nc(-c2ccc3c(N)n[nH]c3c2)cc(N2C[C@@H](C(=O)NC3CCCCC3)CC[C@H]2C)n1; experiment: log2 fold change, soluble protein after heating vs DMSO (PISA); higher = thermal stabilisation; K562 lysate, 10 uM; active = over 0.2 and 3.5 SD of the protein, either way, in both replicates (recomputed)
Procedure, shortened: (§1)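 Log-two fold change in thermal stability relative to solvent controls is reported from duplicates. For each sample, crude K562 extract from dounce-homogenised pellets in PBS pH 7.4 with 1 mM MgCl2, at 1 mg/mL protein, was treated with 10 μM compound for 30 min. Aliquots heated for 3 min across 48°C-58°C were pooled, brought to 0.5% NP-40 at 4°C and cleared at 21,000xg for 90 min. The supernatant was quantified by TMTpro 16plex LC-MS/MS with channel sums equalised.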

log2 fold change, inactive:
TGS1 (UniProt Q96RS0) -0.049
TIMM29 (UniProt Q9BSF4) 0.034
TLN2 (UniProt Q9Y4G6) 0.006
TMEM126A (UniProt Q9H061) -0.038
TMED5 (UniProt Q9Y3A6) 0.013
TMA7 (UniProt Q9Y2S6) -0.102
TIMM22 (UniProt Q9Y584) -0.141
TMEM161A (UniProt Q9NX61) -0.089
TIMM44 (UniProt O43615) -0.017
THEM4 (UniProt Q5T1C6) 0.015
TMED10 (UniProt P49755) -0.021
TMA16 (UniProt Q96EY4) 0.054
TIPRL (UniProt O75663) 0.033
TIMM17A (UniProt Q99595) 0.06
TIMM17B (UniProt O60830) 0.044
TIMM50 isoform 2 (UniProt Q3ZCQ8) 0.008
TMED8 (UniProt Q6PL24) -0.065
TIAL1 isoform 2 (UniProt Q01085) -0.005

compound: COC(=O)N[C@@H](C)CNc1nccc(-c2cn(C(C)C)nc2-c2cc(Cl)cc(NS(C)(=O)=O)c2F)n1 [encorafenib]; experiment: as above
Procedure, shortened: as §1

log2 fold change, inactive:
TICAM2 isoform 2 (UniProt Q86XR7) 0.063
THUMPD2 (UniProt Q9BTF0) -0.001
TMCO1 (UniProt Q9UM00) -0.011
TGOLN2 isoform 7 (UniProt O43493) 0.014
TMBIM1 (UniProt Q969X1) -0.052
TMEM120A (UniProt Q9BXJ8) 0.021
TIMMDC1 (UniProt Q9NPL8) -0.02
TIMM23 (UniProt O14925) -0.008
TJP2 isoform 7 (UniProt Q9UDY2) 0.045
TMEM185B (UniProt Q9H7F4) -0.031
TM9SF4 (UniProt Q92544) 0.104
TMEM168 (UniProt Q9H0V1) 0.022
TMEM164 (UniProt Q5U3C3) -0.107
THYN1 (UniProt Q9P016) -0.016
THNSL1 (UniProt Q8IYQ7) 0.011
TMBIM6 isoform 2 (UniProt P55061) 0.074
THOP1 (UniProt P52888) -0.014
TMCO6 isoform 2 (UniProt Q96DC7) 0.063
TMEM109 (UniProt Q9BVC6) 0.032
THOC5 (UniProt Q13769) 0.005
THOC1 (UniProt Q96FV9) 0.01
TLE4 isoform 3 (UniProt Q04727) 0
TGS1 (UniProt Q96RS0) 0.034
TIMM29 (UniProt Q9BSF4) 0.004
TLN2 (UniProt Q9Y4G6) -0.007
TMEM126A (UniProt Q9H061) 0.022
TMED5 (UniProt Q9Y3A6) 0.013
TMA7 (UniProt Q9Y2S6) -0.082
TIMM22 (UniProt Q9Y584) 0.05
TMEM161A (UniProt Q9NX61) 0.054
TIMM44 (UniProt O43615) 0.056
THEM4 (UniProt Q5T1C6) 0.014
TMED10 (UniProt P49755) 0.015
TMA16 (UniProt Q96EY4) -0.064
TIPRL (UniProt O75663) 0.011
TIMM17A (UniProt Q99595) 0.019
TIMM17B (UniProt O60830) 0.018
TIMM50 isoform 2 (UniProt Q3ZCQ8) 0.017
TMED8 (UniProt Q6PL24) -0.015
TIAL1 isoform 2 (UniProt Q01085) 0.009
